Experimental data as given in the supplement of paper PMC10849652.
The other results are listed elsewhere or left out.

Protein sequences, listed by entry. Tags and fused reporters are not part of them. Lines headed by an entry give the natural chain unless they say otherwise; changes in a name come on top.
UniProt Q9BRL6: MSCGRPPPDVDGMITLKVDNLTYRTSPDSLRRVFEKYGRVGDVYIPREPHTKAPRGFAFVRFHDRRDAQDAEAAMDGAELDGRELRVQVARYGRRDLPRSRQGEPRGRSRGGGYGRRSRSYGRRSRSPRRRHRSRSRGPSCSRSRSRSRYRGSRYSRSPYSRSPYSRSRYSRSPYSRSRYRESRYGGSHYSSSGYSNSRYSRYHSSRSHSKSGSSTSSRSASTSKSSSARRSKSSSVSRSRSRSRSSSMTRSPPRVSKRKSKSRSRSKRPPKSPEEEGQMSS
UniProt Q9H8P0: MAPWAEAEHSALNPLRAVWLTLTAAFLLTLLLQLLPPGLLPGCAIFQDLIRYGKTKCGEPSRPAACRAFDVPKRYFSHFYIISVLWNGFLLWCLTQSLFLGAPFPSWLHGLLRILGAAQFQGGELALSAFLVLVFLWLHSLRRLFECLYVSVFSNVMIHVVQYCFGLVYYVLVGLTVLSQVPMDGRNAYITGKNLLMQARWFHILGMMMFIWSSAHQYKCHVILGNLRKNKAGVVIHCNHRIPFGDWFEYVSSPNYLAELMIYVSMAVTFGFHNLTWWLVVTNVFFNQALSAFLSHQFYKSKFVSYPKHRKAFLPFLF
UniProt Q8N0X7: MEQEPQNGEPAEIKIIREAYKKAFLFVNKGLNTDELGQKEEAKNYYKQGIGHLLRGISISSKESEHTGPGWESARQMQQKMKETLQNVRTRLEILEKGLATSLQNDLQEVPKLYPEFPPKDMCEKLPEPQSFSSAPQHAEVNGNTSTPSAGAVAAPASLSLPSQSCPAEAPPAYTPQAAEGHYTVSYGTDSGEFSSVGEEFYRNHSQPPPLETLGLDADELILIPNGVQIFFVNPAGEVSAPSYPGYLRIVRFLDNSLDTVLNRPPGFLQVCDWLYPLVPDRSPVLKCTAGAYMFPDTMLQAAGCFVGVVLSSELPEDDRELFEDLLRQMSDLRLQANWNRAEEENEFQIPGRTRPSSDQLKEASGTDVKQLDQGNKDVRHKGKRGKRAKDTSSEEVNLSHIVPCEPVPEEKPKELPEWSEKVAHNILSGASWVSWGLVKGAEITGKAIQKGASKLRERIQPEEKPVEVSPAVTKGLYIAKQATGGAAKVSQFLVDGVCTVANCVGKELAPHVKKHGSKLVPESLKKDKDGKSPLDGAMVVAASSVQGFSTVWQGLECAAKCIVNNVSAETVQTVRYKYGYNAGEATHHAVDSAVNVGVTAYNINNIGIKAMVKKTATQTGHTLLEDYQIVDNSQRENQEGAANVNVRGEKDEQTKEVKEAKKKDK
UniProt O75494: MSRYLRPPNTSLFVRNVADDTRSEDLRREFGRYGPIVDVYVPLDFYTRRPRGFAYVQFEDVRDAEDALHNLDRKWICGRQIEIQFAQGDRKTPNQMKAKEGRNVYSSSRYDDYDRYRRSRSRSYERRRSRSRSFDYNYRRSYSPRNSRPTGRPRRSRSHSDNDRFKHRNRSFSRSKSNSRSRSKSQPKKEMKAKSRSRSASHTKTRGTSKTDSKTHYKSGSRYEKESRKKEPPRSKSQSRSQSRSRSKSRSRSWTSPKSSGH
UniProt Q9BUA3: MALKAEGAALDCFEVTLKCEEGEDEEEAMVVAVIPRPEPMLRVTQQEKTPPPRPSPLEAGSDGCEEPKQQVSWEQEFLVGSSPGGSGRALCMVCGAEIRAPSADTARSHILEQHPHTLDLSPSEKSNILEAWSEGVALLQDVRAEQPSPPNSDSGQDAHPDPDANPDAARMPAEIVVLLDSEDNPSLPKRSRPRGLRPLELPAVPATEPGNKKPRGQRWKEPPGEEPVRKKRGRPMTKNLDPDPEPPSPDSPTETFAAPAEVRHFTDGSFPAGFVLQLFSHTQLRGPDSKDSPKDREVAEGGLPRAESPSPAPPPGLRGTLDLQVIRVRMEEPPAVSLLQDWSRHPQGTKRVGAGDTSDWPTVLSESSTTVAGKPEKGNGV
UniProt Q01082, whole entry, looked up: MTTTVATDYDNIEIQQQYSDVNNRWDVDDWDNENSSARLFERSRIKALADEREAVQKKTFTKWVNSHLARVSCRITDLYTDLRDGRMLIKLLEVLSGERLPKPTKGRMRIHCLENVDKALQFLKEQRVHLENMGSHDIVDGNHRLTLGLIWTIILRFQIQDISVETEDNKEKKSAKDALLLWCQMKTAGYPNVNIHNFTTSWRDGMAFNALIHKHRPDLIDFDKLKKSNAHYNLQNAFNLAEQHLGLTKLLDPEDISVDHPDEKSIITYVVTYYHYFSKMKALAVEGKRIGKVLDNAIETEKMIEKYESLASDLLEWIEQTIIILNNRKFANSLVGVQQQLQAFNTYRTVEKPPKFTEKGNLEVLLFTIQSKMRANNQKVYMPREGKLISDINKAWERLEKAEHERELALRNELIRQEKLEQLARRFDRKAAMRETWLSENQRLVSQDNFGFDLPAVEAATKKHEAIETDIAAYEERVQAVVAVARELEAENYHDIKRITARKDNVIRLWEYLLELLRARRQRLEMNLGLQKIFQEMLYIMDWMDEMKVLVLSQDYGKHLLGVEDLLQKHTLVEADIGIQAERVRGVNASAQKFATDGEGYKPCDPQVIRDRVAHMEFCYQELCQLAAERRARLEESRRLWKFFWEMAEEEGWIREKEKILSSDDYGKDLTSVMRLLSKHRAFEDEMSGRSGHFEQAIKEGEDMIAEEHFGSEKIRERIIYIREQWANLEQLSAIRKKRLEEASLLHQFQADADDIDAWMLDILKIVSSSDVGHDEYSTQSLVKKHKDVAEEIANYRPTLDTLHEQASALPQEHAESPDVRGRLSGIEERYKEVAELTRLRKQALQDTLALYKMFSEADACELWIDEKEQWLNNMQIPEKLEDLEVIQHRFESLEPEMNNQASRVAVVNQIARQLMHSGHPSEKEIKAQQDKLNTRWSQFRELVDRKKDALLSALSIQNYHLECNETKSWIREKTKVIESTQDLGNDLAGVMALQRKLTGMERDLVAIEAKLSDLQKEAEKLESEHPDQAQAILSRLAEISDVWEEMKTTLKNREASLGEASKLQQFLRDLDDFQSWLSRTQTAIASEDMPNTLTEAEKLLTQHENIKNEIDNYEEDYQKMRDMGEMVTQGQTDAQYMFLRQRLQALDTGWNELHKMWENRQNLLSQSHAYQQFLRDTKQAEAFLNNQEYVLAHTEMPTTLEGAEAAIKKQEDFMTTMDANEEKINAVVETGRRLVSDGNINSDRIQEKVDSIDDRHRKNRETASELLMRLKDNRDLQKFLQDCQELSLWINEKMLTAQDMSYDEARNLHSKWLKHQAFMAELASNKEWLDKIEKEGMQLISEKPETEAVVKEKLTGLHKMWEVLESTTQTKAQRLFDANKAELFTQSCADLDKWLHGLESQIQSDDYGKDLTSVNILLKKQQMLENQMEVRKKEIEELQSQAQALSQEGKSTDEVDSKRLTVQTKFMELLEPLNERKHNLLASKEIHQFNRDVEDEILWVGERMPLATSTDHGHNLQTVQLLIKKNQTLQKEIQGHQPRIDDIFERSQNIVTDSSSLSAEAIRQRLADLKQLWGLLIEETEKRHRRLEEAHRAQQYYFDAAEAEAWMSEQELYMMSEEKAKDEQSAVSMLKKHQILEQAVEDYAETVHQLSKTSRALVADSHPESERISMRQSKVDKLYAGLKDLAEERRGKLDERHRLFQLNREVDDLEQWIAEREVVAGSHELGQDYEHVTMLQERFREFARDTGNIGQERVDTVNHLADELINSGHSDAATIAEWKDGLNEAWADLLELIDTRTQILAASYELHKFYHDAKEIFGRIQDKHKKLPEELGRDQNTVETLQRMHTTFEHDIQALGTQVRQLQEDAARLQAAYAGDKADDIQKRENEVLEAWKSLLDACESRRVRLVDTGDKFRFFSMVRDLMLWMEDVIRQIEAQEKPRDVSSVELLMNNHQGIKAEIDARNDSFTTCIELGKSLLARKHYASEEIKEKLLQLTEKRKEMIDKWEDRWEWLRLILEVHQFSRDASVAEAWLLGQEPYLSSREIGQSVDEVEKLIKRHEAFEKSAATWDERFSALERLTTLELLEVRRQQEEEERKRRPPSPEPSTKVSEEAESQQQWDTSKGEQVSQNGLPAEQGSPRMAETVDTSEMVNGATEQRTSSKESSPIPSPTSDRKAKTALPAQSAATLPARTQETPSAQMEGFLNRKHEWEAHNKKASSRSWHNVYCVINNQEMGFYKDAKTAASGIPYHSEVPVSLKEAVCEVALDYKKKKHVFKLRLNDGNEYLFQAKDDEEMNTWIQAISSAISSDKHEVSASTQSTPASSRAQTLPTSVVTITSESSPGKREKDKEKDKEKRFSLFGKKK
UniProt Q8WXA9: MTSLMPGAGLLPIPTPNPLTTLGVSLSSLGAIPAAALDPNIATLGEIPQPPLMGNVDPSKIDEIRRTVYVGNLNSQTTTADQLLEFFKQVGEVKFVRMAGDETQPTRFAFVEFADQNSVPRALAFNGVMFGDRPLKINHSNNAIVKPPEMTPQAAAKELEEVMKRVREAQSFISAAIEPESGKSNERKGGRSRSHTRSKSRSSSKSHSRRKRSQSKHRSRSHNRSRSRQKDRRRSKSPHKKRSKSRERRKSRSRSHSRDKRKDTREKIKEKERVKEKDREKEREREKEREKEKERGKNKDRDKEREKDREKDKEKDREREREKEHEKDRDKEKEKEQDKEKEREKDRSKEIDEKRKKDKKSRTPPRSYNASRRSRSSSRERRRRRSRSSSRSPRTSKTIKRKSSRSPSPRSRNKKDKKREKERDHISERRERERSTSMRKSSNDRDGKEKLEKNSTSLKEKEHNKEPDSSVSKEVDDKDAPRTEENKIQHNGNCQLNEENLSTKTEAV
UniProt Q04837: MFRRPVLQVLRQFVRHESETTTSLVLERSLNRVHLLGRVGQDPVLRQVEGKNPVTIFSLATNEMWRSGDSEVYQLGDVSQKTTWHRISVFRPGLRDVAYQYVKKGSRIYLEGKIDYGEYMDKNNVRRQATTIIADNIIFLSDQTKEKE

Key:
Test in all cases: log2 fold change, soluble protein after heating vs DMSO (PISA); higher = thermal stabilisation; K562 lysate, 10 uM; active = over 0.2 and 3.5 SD of the protein, either way, in both replicates (recomputed)
[1] = compound: C1=CC=C(C=C1)[C@H](COC2=CC3=C(C=C2)NC(=O)N3)NC(=O)C4=CC=CN(C4=O)CC5=CC(=C(C=C5)F)F
In short: (§1)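 Thermal stability, expressed as log-two fold change relative to solvent controls, is given from duplicates. Crude K562 extract in PBS pH 7.4 with 1 mM MgCl2, at 1 mg/mL protein, was treated with 10 μM compound for 30 min and heated in aliquots for 3 min across 48°C-58°C. After pooling, adjustment to 0.5% NP-40 at 4°C and centrifugation at 21,000xg for 90 min, supernatant protein was measured by TMTpro 16plex LC-MS/MS with channel sums equalised.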

[2] = compound: CC1=C(SC2=C1C(=N[C@H](C3=NN=C(N32)C)CC(=O)N)C4=CC=C(C=C4)Cl)C
In short: as §1

[3] = compound: CC1=C2C(=CC=C1)N=C(N(C2=O)C3=CC=CC=C3C)CN4C=NC5=C(N=CN=C54)N
In short: as §1

[4] = compound: Cc1sc2c(c1C)C(c1ccc(Cl)cc1)=N[C@@H](CC(=O)OC(C)(C)C)c1nnc(C)n1-2
In short: as §1

[5] = compound: c1ccc([C@@H]2C[C@H]2NC2CCNCC2)cc1
In short: as §1

Measured: log2 fold change

SRSF8 (UniProt Q9BRL6)
inactive: [1] 0.012 | [2] -0.009 | [3] -0.002 | [4] -0.042 | [5] -0.074

SRD5A3 (UniProt Q9H8P0)
inactive: [1] -0.06 | [2] -0.035 | [3] -0.129 | [4] 0.195

SPART (UniProt Q8N0X7)
inactive: [1] 0.072 | [2] 0.027 | [3] -0.012 | [4] 0.092 | [5] -0.006

SPTAN1 isoform 3 (UniProt Q13813)
inactive: [1] -0.03 | [2] -0.001 | [3] 0.028

SRSF10 (UniProt O75494)
inactive: [1] 0 | [2] 0.01 | [3] 0.005 | [4] 0.018 | [5] -0.022

SPINDOC (UniProt Q9BUA3)
inactive: [1] -0.004 | [2] 0.025 | [3] -0.096 | [4] 0.028 | [5] -0.058

SPTBN1 (UniProt Q01082)
inactive: [1] -0.022 | [2] 0.024 | [3] -0.006 | [4] 0.001 | [5] 0.021

SREK1 isoform 2 (UniProt Q8WXA9)
inactive: [1] 0.015 | [2] 0.033 | [3] 0.026 | [4] 0.059 | [5] -0.006

SSBP1 (UniProt Q04837)
inactive: [1] 0.046 | [2] -0.008 | [3] 0.003 | [4] -0.04 | [5] -0.036
